# Laboratory results reported in the supplement of paper PMC8728848.
# The other results are listed elsewhere or left out.
# B1: RsaA-N-term (Caulobacter crescentus), P35828 (protein)
# chain: MAYTTAQLVTAYTNANLGKAPDAATTLTLDAYATQTQTGGLSDAAALTNTLKLVNSTTAVAIQTYQFFTGVAPSAAGLDFLVDSTTNTNDLNDAYYSKFAQENRFINFSINLATGAGAGATAFAAAYTGVSYAQTVATAYDKIIGNAVATAAGVDVAAAVAFLSRQANIDYLTAFVRANTPFTAAADIDLAVKAALIGTILNAATVSGIGGYATATAAMINDLSDGALSTDNAAGVNLFTAYPSSGVSGSTLSLTTGTDTLTGTANNDTFVAGEVAGDGSGWSHPQFEKGG
# Legend:
# Assay in all cases: glycan array binding signal (z-score within array); higher = stronger binding
# Details in all cases: glycan notation: IUPAC condensed, linker removed
# [1] = target: Gal(b1-4)GlcNAc(b1-3)Gal(b1-4)GlcNAc(b1-3)Gal(b1-4)GlcNAc(b1-3)Gal(b1-4)GlcNAc(b1-2)Man(a1-3)[Gal(b1-4)GlcNAc(b1-3)Gal(b1-4)GlcNAc(b1-3)Gal(b1-4)GlcNAc(b1-3)Gal(b1-4)GlcNAc(b1-2)Man(a1-6)]Man(b1-4)GlcNAc(b1-4)GlcNAc
# Outline: (§1)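 Arrays were curated from the Consortium for Functional Glycomics database, 3228 in total, and kept only where the protein sequence was available. Binding is expressed as a within-array Z-score. This score was averaged across arrays of the same protein sequence at different concentrations or buffers and across linkers, and negative values can be read as non-binding.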
# [2] = target: Gal(b1-4)GlcNAc(b1-3)Gal(b1-4)GlcNAc(b1-3)Gal(b1-4)GlcNAc(b1-3)Gal(b1-4)GlcNAc(b1-2)Man(a1-3)[Gal(b1-4)GlcNAc(b1-3)Gal(b1-4)GlcNAc(b1-3)Gal(b1-4)GlcNAc(b1-3)Gal(b1-4)GlcNAc(b1-2)Man(a1-6)]Man(b1-4)GlcNAc(b1-4)[Fuc(a1-6)]GlcNAc
# Outline: as §1
# [3] = target: Gal(b1-4)GlcNAc(b1-3)Gal(b1-4)GlcNAc(b1-3)Gal(b1-4)GlcNAc(b1-3)Gal(b1-4)GlcNAc(b1-2)[Gal(b1-4)GlcNAc(b1-3)Gal(b1-4)GlcNAc(b1-3)Gal(b1-4)GlcNAc(b1-3)Gal(b1-4)GlcNAc(b1-6)]Man(a1-6)[Gal(b1-4)GlcNAc(b1-3)Gal(b1-4)GlcNAc(b1-3)Gal(b1-4)GlcNAc(b1-3)Gal(b1-4)GlcNAc(b1-2)Man(a1-3)]Man(b1-4)GlcNAc(b1-4)[Fuc(a1-6)]GlcNAc
# Outline: as §1
# [4] = target: Gal(b1-4)GlcNAc(b1-3)Gal(b1-4)GlcNAc(b1-3)Gal(b1-4)GlcNAc(b1-3)Gal(b1-4)GlcNAc(b1-3)Gal(b1-4)GlcNAc(b1-2)Man(a1-3)[Gal(b1-4)GlcNAc(b1-3)Gal(b1-4)GlcNAc(b1-3)Gal(b1-4)GlcNAc(b1-3)Gal(b1-4)GlcNAc(b1-3)Gal(b1-4)GlcNAc(b1-2)Man(a1-6)]Man(b1-4)GlcNAc(b1-4)GlcNAc
# Outline: as §1
# [5] = target: Gal(b1-4)GlcNAc(b1-3)Gal(b1-4)GlcNAc(b1-3)Gal(b1-4)GlcNAc(b1-3)Gal(b1-4)GlcNAc(b1-3)Gal(b1-4)GlcNAc(b1-2)Man(a1-3)[Gal(b1-4)GlcNAc(b1-3)Gal(b1-4)GlcNAc(b1-3)Gal(b1-4)GlcNAc(b1-3)Gal(b1-4)GlcNAc(b1-3)Gal(b1-4)GlcNAc(b1-2)Man(a1-6)]Man(b1-4)GlcNAc(b1-4)[Fuc(a1-6)]GlcNAc
# Outline: as §1
# [6] = target: Gal(b1-4)GlcNAc(b1-3)Gal(b1-4)GlcNAc(b1-3)Gal(b1-4)GlcNAc(b1-3)Gal(b1-4)GlcNAc(b1-3)Gal(b1-4)GlcNAc(b1-2)[Gal(b1-4)GlcNAc(b1-3)Gal(b1-4)GlcNAc(b1-3)Gal(b1-4)GlcNAc(b1-3)Gal(b1-4)GlcNAc(b1-3)Gal(b1-4)GlcNAc(b1-6)]Man(a1-6)[Gal(b1-4)GlcNAc(b1-3)Gal(b1-4)GlcNAc(b1-3)Gal(b1-4)GlcNAc(b1-3)Gal(b1-4)GlcNAc(b1-3)Gal(b1-4)GlcNAc(b1-2)Man(a1-3)]Man(b1-4)GlcNAc(b1-4)[Fuc(a1-6)]GlcNAc
# Outline: as §1
# [7] = target: Gal(b1-4)GlcNAc(b1-3)Gal(b1-4)GlcNAc(b1-3)Gal(b1-4)GlcNAc(b1-3)Gal(b1-4)GlcNAc(b1-3)Gal(b1-4)GlcNAc(b1-3)Gal(b1-4)GlcNAc(b1-2)Man(a1-3)[Gal(b1-4)GlcNAc(b1-3)Gal(b1-4)GlcNAc(b1-3)Gal(b1-4)GlcNAc(b1-3)Gal(b1-4)GlcNAc(b1-3)Gal(b1-4)GlcNAc(b1-3)Gal(b1-4)GlcNAc(b1-2)Man(a1-6)]Man(b1-4)GlcNAc(b1-4)GlcNAc
# Outline: as §1
# [8] = target: Gal(b1-4)GlcNAc(b1-3)Gal(b1-4)GlcNAc(b1-3)GalNAc
# Outline: as §1
# [9] = target: Gal(b1-4)GlcNAc(b1-3)Gal(b1-4)GlcNAc(b1-3)[Gal(b1-4)GlcNAc(b1-3)Gal(b1-4)GlcNAc(b1-6)]GalNAc
# Outline: as §1
# [10] = target: Gal(b1-4)GlcNAc(b1-3)Gal(b1-4)GlcNAc(b1-6)[Gal(b1-3)]GalNAc
# Outline: as §1
# [11] = target: Gal(b1-4)GlcNAc(b1-3)Gal(b1-4)[Fuc(a1-3)]GlcNAc(b1-3)Gal(b1-4)[Fuc(a1-3)]GlcNAc
# Outline: as §1
# [12] = target: Gal(b1-4)GlcNAc(b1-3)GalNAc
# Outline: as §1
# [13] = target: Gal(b1-4)GlcNAc(b1-3)[Fuc(a1-3)GlcNAc(b1-6)]Gal(b1-4)Glc
# Outline: as §1
# [14] = target: Gal(b1-4)GlcNAc(b1-3)[Gal(b1-4)GlcNAc(b1-6)]Gal(b1-4)GlcNAc
# Outline: as §1
# [15] = target: Gal(b1-4)GlcNAc(b1-3)[GlcNAc(b1-6)]Gal(b1-4)GlcNAc
# Outline: as §1
# [16] = target: Gal(b1-4)GlcNAc(b1-6)Gal(b1-4)GlcNAc
# Outline: as §1
# [17] = target: Gal(b1-4)GlcNAc(b1-6)GalNAc
# Outline: as §1
# [18] = target: Gal(b1-4)GlcNAc(b1-6)[Gal(b1-3)]GalNAc
# Outline: as §1
# [19] = target: Gal(b1-4)GlcNAc(b1-6)[Gal(b1-4)GlcNAc(b1-3)]GalNAc
# Outline: as §1
# Gal(b1-4)GlcNAc6P = target: Gal(b1-4)GlcNAc6P
# Outline: as §1
# Gal(b1-6)Gal = target: Gal(b1-6)Gal
# Outline: as §1
# Gal3S(b1-3)GalNAc = target: Gal3S(b1-3)GalNAc
# Outline: as §1
# Gal3S(b1-3)GlcNAc = target: Gal3S(b1-3)GlcNAc
# Outline: as §1
binder,measurement,setting,value
B1,glycan array binding signal (z-score),[1],0.106
same,glycan array binding signal (z-score),[2],0.726
same,glycan array binding signal (z-score),[3],0.57
same,glycan array binding signal (z-score),[4],0.366
same,glycan array binding signal (z-score),[5],-0.433
same,glycan array binding signal (z-score),[6],0.927
same,glycan array binding signal (z-score),[7],-0.072
same,glycan array binding signal (z-score),[8],-0.197
same,glycan array binding signal (z-score),[9],0.36
same,glycan array binding signal (z-score),[10],-1.1
same,glycan array binding signal (z-score),[11],-0.276
same,glycan array binding signal (z-score),[12],-0.105
same,glycan array binding signal (z-score),[13],-1.33
same,glycan array binding signal (z-score),[14],-0.453
same,glycan array binding signal (z-score),[15],0.529
same,glycan array binding signal (z-score),[16],-2.87
same,glycan array binding signal (z-score),[17],-0.148
same,glycan array binding signal (z-score),[18],0.646
same,glycan array binding signal (z-score),[19],-1.08
same,glycan array binding signal (z-score),Gal(b1-4)GlcNAc6P,-0.433
same,glycan array binding signal (z-score),Gal(b1-6)Gal,-0.43
same,glycan array binding signal (z-score),Gal3S(b1-3)GalNAc,1.7
same,glycan array binding signal (z-score),Gal3S(b1-3)GlcNAc,-0.193

# A stretch taken from the entries so far, for reference:
binder,measurement,setting,value
B1,glycan array binding signal (z-score),[18],0.646
same,glycan array binding signal (z-score),[19],-1.08
